Source: US20260226073A1 (AURIGENE ONCOLOGY LIMITED, priority 2023, published 2026)
Some results were stated once for a whole list of compounds, not compound by compound.

System: NFAT signaling pathway in Jurkat NFAT reporter cells
Test: Jurkat NFAT reporter assay
Type: cell-based
Conditions: 30 min with compound, then soluble anti-human CD3/CD28 antibody for 6 hours, luciferase readout, read-out: EC50 (Group)
Description: A human T lymphocyte Jurkat reporter cell line was further used to assess activation of the nuclear factor of activated T-cells (NFAT) signaling pathway by Cbl-b inhibitors. The reporter cell line is a genetically engineered Jurkat T cell line that expresses a luciferase reporter driven by an NFAT-response element (NFAT-RE). The Cbl-b inhibitor was incubated with 1×10^5 Jurkat NFAT reporter cells per well for 30 minutes. Subsequently, cells were stimulated with soluble anti-human CD3/CD28 antibody for 6 hours resulting in NFAT-RE-mediated luminescence. The bioluminescent signal is detected and quantified using Bio-Glo™ Luciferase Assay System. Readouts were reported as fold change over baseline. Here, baseline was the measurement obtained from Jurkat NFAT reporter cells stimulated with anti-CD3 antibody and anti-CD28 antibody, where the cells were not incubated with a Cbl-b inhibitor.

Row | Compound | EC50
1 | Cn1cnnc1CC1(c2ccc3c(c2)C(=O)N(c2cc(CNC4CCCC4O)cc(Cl)n2)C3)COC1 (single isomer, unassigned) [Compound 209, 2-(6-Chloro-4-(((2-hydroxycyclopentyl)amino)methyl)pyridin-2-yl)-6-(3-((4-methyl-4H-1,2,4-triazol-3-yl)methyl)oxetan-3-yl)isoindolin-1-one] | 0.3 to 1 µM
2 | Cn1cnnc1CC1(c2ccc3c(c2)C(=O)N(c2cc(CNC4CCCC4O)cc(Cl)n2)C3)COC1 (single isomer, unassigned) [Compound 210] | 1 to 10 µM
